The supplement of paper PMC5949888
Most values lie at the floor of the assay. Slopes are relative: functional sequences can read slightly below zero.

tested on: Saccharomyces cerevisiae PS128 hsf1 delta, HSF1(1-493) fusion; assay: growth estimate (transactivation domain function in HSF1 fusion, heat-shock survival) (a.u. (slope of normalised read count over time)); higher = stronger growth at 37°C, i.e. more transactivation activity; settings: library: random library

Substance | growth estimate
VQGLYKFKLQSGQAAGVRGQ | < -0.25
SQGGQRQARGPERC | < -0.25
GLCKIFVKSVKLDRNGRAGH | < -0.25
HRPQYNGRKFREGHRWTYRR | < -0.25
QGASQSLTKYTAVRAPGSKA | < -0.25
LTSAPSS | < -0.25
RSENPRTAYYKLAWCVVYAP | < -0.25
IRSDALADHRVSRDVSCTGT | < -0.25
LESGRSHFAWACYAKVGSPA | < -0.25
PLSLKLFYVLGPNHEEVVLP | < -0.25
DERSLNAASVTTHNDHSKLR | < -0.25
LVPT | < -0.25
GGMVRCSQLYSSALWRRSAQ | < -0.25
WKYSASTSMLVHTGPSDRMV | < -0.25
PDGAI | < -0.25
KTEIENMYLWIRFRMGSG | < -0.25
VCPSKLREGTRGF | < -0.25
KLRCFG | < -0.25
VAASMSEPTPLGRCRHGPPA | < -0.25
SGGIDRGAPKTSLQARS | < -0.25
TWTQSPGNLDFKSARERKSS | < -0.25
LEHDRLPPPREDHGTIHAWS | < -0.25
VWERAKSYACFVNWSSKKLL | < -0.25
FQPIPGGQLCRVERPDQTSL | < -0.25
TFVVCRTGWARHVDC | < -0.25
ISKDSWATSLSKAVSHGR | < -0.25

A second format for part of the listing above.
Substance	growth estimate
RSENPRTAYYKLAWCVVYAP	< -0.25
IRSDALADHRVSRDVSCTGT	< -0.25

(listing goes on)

Substance | growth estimate
EREGLYRPDSHP | < -0.25
LDRAATFPMRGSFLVKLSFG | < -0.25
PLSQ | < -0.25
VLRQLVVTQ | -0.243
DSTTTIAWALKPRTTRRSLP | < -0.25
RLVTAGLGSGLHPHDTVFPL | < -0.25
PNIANKFTPSTAGTGPNIRQ | < -0.25
SLRLDTDFRRGSITE | < -0.25
ASCDKEFIW | < -0.25
GRETRVTGSRPRDTGAPRPL | < -0.25
NHDCHPDDMRRSMGAWVIGR | < -0.25
PHGP | < -0.25
RWEHGGISSPKSDFLELGGP | < -0.25
YRVNAGLPGTSNSVKNHVGT | < -0.25
HSETLRISSRVRCLARGPEG | < -0.25
LQR | < -0.25
ALRCLKCLRDSPAGPYRFVF | < -0.25
RHERINVSAPASGRSGTLVR | < -0.25
LTGVTRRWCVCFPAEVENPR | < -0.25
NPGTISSRGRAHYRPDNSCL | < -0.25
WYVKNMYVQPRMSRVW | < -0.25
PVVSGCSVPLFVRGHGTAKS | < -0.25
VDLMCCVYF | < -0.25
SLTDPA | < -0.25
PGIRHQGILNKFFLSYVL | < -0.25
AYSWMFLYFISCAKELVRRG | -0.225

Substance | growth estimate
DLALRLKFYVVLGCWVLREV | < -0.25
CHARLSWYPAAFRSEDRAC | < -0.25
TGMYFSELSCIRRPSVLALK | -0.246
SGAKAEQTGHLQKVSKRHQV | < -0.25
GEQCCLRCYSGAMSVCEHWG | < -0.25
LHATIVLKSAAGSYLPILWL | < -0.25
KAARDWLQQLVKIRAHPQLE | < -0.25
LHEAY | < -0.25
RIGVGVTPQGWVM | < -0.25
QKGSLSWFSI | < -0.25
TDHWASKSSNLTLLVGRTML | < -0.25
TSLAVRKWQNIRARPGRLRI | < -0.25
QAIRGLYC | < -0.25
EVR | < -0.25
SEGFAIATRINEAAQTLVHV | < -0.25
TRNARSPCQSIHEGVDSPGL | < -0.25
VWFPLKWRVGGADRFFMG | < -0.25
VTGLFSGAHACST | < -0.25
MLT | < -0.25
GDNVHLRSVWLWCHVFGRR | < -0.25
AFRWRKVISGVGILARRRWP | < -0.25
SDPFSVRSMQKRR | < -0.25
ILGPAGLAPS | < -0.25
EATSFFFSSVQSVQLSLVRG | < -0.25
WRLTHIGSGDEILLCAYMDL | < -0.25
FSQLVFRKYKLNTVPTSQVT | < -0.25

Quoted from the listing.
growth estimate, TGMYFSELSCIRRPSVLALK reads -0.246
growth estimate, SGAKAEQTGHLQKVSKRHQV reads < -0.25
growth estimate, CHARLSWYPAAFRSEDRAC reads < -0.25

More entries

Substance | growth estimate
VIYRFGMSANHRSERGSCVG | < -0.25
SHCSNPLQYN | < -0.25
GTGSAGRKGRNGV | < -0.25
FLLSSSALVY | < -0.25
TRVICAGSSEMSNCFVVIVH | < -0.25
SPLACAFLRRSHGPEDSGSR | < -0.25
KNRREVC | < -0.25
HTDGSTVFAKNTGQSTG | < -0.25
PYVSAVAEPN | < -0.25
LTGLGLSDRIKTCSGHGVVS | < -0.25
TIESNRFYCYEVKCDAATLR | < -0.25
PSSRPGFIRIGFRSSMCR | < -0.25
QSRHSAWVSRTPSNGKWLRG | -0.245
RVERFGSPVARPGRASRLSS | < -0.25
SGRSGRLIRRAIRPLHGVAQ | < -0.25
DYSPKPLA | < -0.25
CLLRNKLIKLG | < -0.25
LHAE | < -0.25
CPLSPGGSLGTYARRLVTVG | < -0.25
WEHDPAAPVAA | < -0.25
RRRVRALTGPYSNRVTWRPK | < -0.25
VTTSQMSSRAIAF | < -0.25
DSESADFHGQSGVYGIAVHR | < -0.25
LANCTLCTRTAHVFSETTVV | < -0.25
GLRSMVAKIGMDPVVTSQRG | < -0.25
AEVCYHGPLRPTCDRGLRAQ | < -0.25

Substance | growth estimate
THELFVLRSDHSLPEVKRHR | < -0.25
RTVLFWSLDFSVPLLFNLHG | < -0.25
DASVQRKEPRVAIKSSAQIL | < -0.25
LASWNCVEF | < -0.25
LVVARDGVVRTKSKFMGLRD | < -0.25
SQWE | < -0.25
REQG | < -0.25
TTGSLYSREFQQSWKDRAAQ | < -0.25
RLPLGATIVAL | < -0.25
NLVIDVGTAKHFR | < -0.25
GYILCG | < -0.25
RCLSIAQRLWILAEPIYDPT | < -0.25
ILI | < -0.25
VWDFE | < -0.25
RKVLNA | < -0.25
KCALGHKGLMPAPKPTEWG | < -0.25
FVGSRVYIGAITGARGIGQG | < -0.25
RVDKQ | < -0.25
GQIPSERTQRGGKHKFAGLG | < -0.25
DHYAGVR | < -0.25
RMLARGRDDISTTAHIRFPA | < -0.25
WKTVH | < -0.25
DLMDSTVSYSSP | < -0.25
LARVLSVPSESCYIWVNRAK | < -0.25
VLVAHVKPQLLGFMYVLTLE | < -0.25
DTTGT | < -0.25

Substance | growth estimate
QLHGGIDWLCRR | < -0.25
GHPEPPLSEGISIGRLWVRE | < -0.25
VVETSD | < -0.25
KRLNHVPETRGNVRSG | < -0.25
LPSGITWQGGHREAG | < -0.25
LPSSVLATLGAQLATP | < -0.25
ISDERKGTFAPSSHVPVNSR | < -0.25
SCKACSTQIY | < -0.25
GTICV | < -0.25
ALADHLVPQSKAPRTTTGNL | < -0.25
CSYRGRSSRGVGVAAFDDIV | < -0.25
RVRHFWR | < -0.25
IHC | < -0.25
VAIDVGQSCALRGRGEFFGI | < -0.25
GLLAPVSDRLHESVVADY | < -0.25
SFLLVASSLRLTGIFLCPVP | < -0.25
QLEGEGCGCLTAVMAWPQ | < -0.25
YDTVQT | < -0.25
GRGRHEPTVMPRAVAGLCHP | < -0.25
LVIVT | < -0.25
NHVIYDGFRLDSSKRKMCLA | < -0.25
IESDERQGVQPYYCEHAWSR | < -0.25
MMRRRDTSET | < -0.25
FIEELLCDISKSRKCSNSPT | < -0.25
GVDQGFIYGHLIAESVSGLV | < -0.25
